Part of at least one peptide drawing is inferred or uncertain, most often the ends.
What follows are molecules tested on rice (Oryza sativa L. japonica) (assay: Rice germination test). Details: seeds treated with aqueous test drug solution (1×10^6 M) only during 4-day germination; measured 7 days after transplantation to water culture; dark room at 20° C.; n=30.
Format: in vivo

| Structure (SMILES) | Root length [mm] | Root weight [mg] | Shoot length [mm] | Shoot weight [mg] |
| --- | --- | --- | --- | --- |
| NCCCC(=O)N[C@@H](CC(=O)O)C(=O)O [Compound 3, GABA-Asp] | 63.3 ± 3.32 | 24.6 ± 1.28 | 57.1 ± 0.89 | 25.2 ± 0.77 |
| NCCCC(=O)N[C@H](CCC(=O)O)C(=O)O [Compound 2, GABA-D-Glu] | 55.2 ± 4.67 | 30.0 ± 0.74 | 55.5 ± 1.08 | 26.1 ± 0.98 |
| NCCCC(=O)N[C@@H](CCC(=O)O)C(=O)O [Compound 1, GABA-Glu] | 61.5 ± 2.83 | 30.8 ± 1.23 | 55.8 ± 1.02 | 26.1 ± 0.71 |
| NCCCC(=O)N[C@H](CC(=O)O)C(=O)O [Compound 4, GABA-D-Asp] | 66.8 ± 3.34 | 28.3 ± 1.86 | 54.8 ± 0.91 | 24.5 ± 0.66 |
